# Results: publication PMC12040169 (PLOS Biology, 2025)
# This is one part of the list.
# Test system: T1, CTL2-GFP (C. trachomatis L2/434/Bu, GFP-expressing)
# T1 construct: L2/434/Bu, GFP-expressing
# Parameters: species or system HeLa; Intracellular C. trachomatis growth in HeLa cells, bulk GFP fluorescence relative to DMSO
# Settings: bulk GFP, single well; 28.5 h, 10 µM; inhibitor
row,Compound,% of control remaining [%]
1,CC(Cn1cncc1-c1cnn(C)c1)Oc1ccccc1Cl (stereo not drawn) [CBK281737],115.354
2,Cc1cc(C)c(NC(=O)CSc2nnc(-c3cccnc3)s2)c([N+](=O)[O-])c1 [CBK268929],134.318
3,O=C1CCCc2nccc(-c3ccc(Cl)cc3)c21 [CBK287870],121.907
4,CN(Cc1ccncc1)C(=O)CCn1c(C(F)F)cc2cccnc21 [CBK285070],145.868
5,CCc1nc2ccc(C(=O)NCCN3CCNC3=O)cn2c1N(CCN(C)C)CC1CC1 [CBK145469],103.282
6,Cc1ccc(S(=O)(=O)N(CC(=O)Nc2cccnc2)c2ccc(C)c(C)c2)cc1 [CBK263974],129.778
7,CCNc1nc(NCc2ccccc2)nc(Oc2ccc(O)nn2)n1 [CBK266591],133.257
8,COc1ccc2cnc(C3CCCN(C(=O)C4CC4)C3)cc2c1C (stereo not drawn) [CBK284716],128.985
9,O=C(C1CC2C=CC1C21CC1)N1CCCC(c2nc3ccccc3[nH]2)C1 (stereo not drawn) [CBK281513],122.588
10,Cc1cccc(-c2nc(C(N)=O)c3[nH]c(=O)n(-c4ccc(F)cc4)c3n2)c1 [CBK287632],105.671
11,CC(Sc1nc2ccccc2c(=O)n1C)C(=O)N1CCOCC1 (stereo not drawn) [CBK305031],143.455
12,O=S(=O)(NCc1cccnc1)c1ccc(Cl)c2ccccc12 [CBK264008],99.03
13,Fc1cc(Br)ccc1-c1cnn(-c2ccccc2)n1 [CBK112925],85.3888
14,Cc1nc(C)n(CC2CCCN(Cc3cn4c(C)cccc4n3)C2)n1 (stereo not drawn) [CBK304007],103.227
15,COCCn1nc(C(=O)N(C)Cc2nc3ccccc3s2)ccc1=O [CBK305338],100.123
16,O=C(COc1ccc([N+](=O)[O-])cc1)Nc1cccc2nsnc12 [CBK263808],110.595
17,CC(=O)N1CCN(C(=O)C[C@@H]2C[C@@H](C(C)C)[C@H](CC#N)C=C2C)CC1 [CBK289214],117.782
18,CCC(NC(=O)CCc1cccnc1)c1cn2cccnc2n1 (stereo not drawn) [CBK307247],137.955
19,CC(C)(CN1CCCC1)NC(=O)c1cc(Cl)c(Cl)cc1C(=O)O [CBK287141],161.913
20,Cc1cc(CN2CCN(S(=O)(=O)c3ccc(C(F)(F)F)cc3Cl)CC2)cc(C)c1O [CBK063074],104.669
21,Cc1cc(=O)c(C#N)c(C)[nH]1 [CBK023326],105.984
22,O=C(O)c1cccc(NS(=O)(=O)c2ccc(Br)cc2F)c1 [CBK155691],91.7529
23,OCCN1CC2(CCN(CCc3c[nH]c4ccccc34)CC2)c2ccccc21 [CBK144607T],102.022
24,Cc1ccc(-c2c(N3CCCC3)n[nH]c2C2CC2)cc1 [CBK288192],91.2966
25,Cn1c(SCC(=O)Nc2c(F)cc(F)cc2Br)nnc1-c1cccnc1 [CBK267583],119.041
26,Cc1cc(C)c2c(CC(=O)N(C)CCN(C)C)c(C)[nH]c2c1 [CBK282732],135.947

row,Compound,% of control remaining [%]
1,O=C(NCc1cccs1)c1ccc(-c2ccoc2)nc1 [CBK156269],106.092
2,O=C(O)c1ccc(N2C(=O)CC(N3CCN(C/C=C/c4ccccc4)CC3)C2=O)cc1 (stereo not drawn) [CBK261402],100
3,Cc1c(C(=O)O)sc2nc3c(Cl)cc(C(=O)c4ccccc4O)cn3c(=O)c12 [CBK295619],145.477
4,Cc1noc(C)c1S(=O)(=O)Nc1ccsc1C(=O)Nc1ccc(F)cc1 [CBK004604],90.1441
5,O=C(Nc1ccc(C(F)(F)F)cc1)C1CCCS1 (stereo not drawn) [CBK006142],132.428
6,CC(=O)c1cc(C)c(C)cc1N [CBK016322],123.005
7,CCCn1nc(C)c(-c2cncn2CCc2c(C)nn(C)c2C)c1C [CBK281475],118.76
8,Cc1ccc(C(=O)NC[C@H]2O[C@@H](CC(=O)N3CCOCC3)[C@H](O)[C@@H]2O)cc1 [CBK288925],108.763
9,CC(=O)Nc1ccc(S(=O)(=O)Nc2nnc(C(C)(C)C)s2)cc1 [CBK045499],96.4657
10,Cc1cccc(NC(=O)Cn2cc(C(=O)COc3ccccc3)c3ccccc32)c1 [CBK268654],122.112
11,COc1cc([N+](=O)[O-])ccc1NC(=O)NCc1ccc(C(=O)O)cc1 [CBK267092],163.487
12,CC(C)(C)NS(=O)(=O)c1ccc(NC(=O)c2cc(-c3ccccn3)nc3c(Cl)cccc23)cc1 [CBK267783],110.592
13,CCOC(=O)c1cn(CCSCC)cc(Oc2ccccc2)c1=O [CBK307244],85.7574
14,COc1ccccc1Cc1cccc(C2CCCN2C(=O)CCc2ccc(F)cc2)n1 (stereo not drawn) [CBK286238],103.924
15,CC(Oc1ccccc1)C(=O)Nc1nn(Cc2ccc(S(=O)(=O)N3CCCC3)cc2)c2ccccc12 (stereo not drawn) [CBK061595],100
16,COc1ccc(C(=O)Nc2ccc(S(=O)(=O)N3CCN(C)CC3)cc2)cc1[N+](=O)[O-] [CBK268140],106.526
17,CCOC(=O)c1cc2cc(NC(=O)N(CCO)C3CC3)ccc2s1 [CBK306007],130.372
18,NC(=O)COc1ccc(C2CC(=O)Nc3c(-c4cccc(F)c4)csc32)cc1 (stereo not drawn) [CBK294441],125.364
19,CN(C)CCSc1cncc(N2CCCC2)n1 [CBK105294],119.167
20,Cc1nn(C)c(Cl)c1S(=O)(=O)N1CCN(C)CC1 [CBK062426],117.303
21,O=C(c1nccs1)C1CCN(C(=O)Cc2ccsc2)CC1 [CBK284176],90.9104
22,COc1ccc(NC(=O)N2CC[C@H]3CC(=O)N(CCN4CCNC4=O)CC[C@H]3C2)cc1 [CBK288797],140.072
23,CC(CCc1ccccc1)NC(=O)c1ccccc1C(=O)O (stereo not drawn) [CBK286940],140.056
24,CCn1c2ccccc2n2c(SCC(=O)O)nnc12 [CBK266869],150.713
25,CSc1ccc(CNC(=O)c2ccc(Cl)cc2)s1 [CBK057705],141.532
26,CN1CCN(C(C(=O)O)c2cn(CCC(=O)O)c3ccc(Br)cc23)CC1 (stereo not drawn) [CBK286698],110.313

row,Compound,% of control remaining [%]
1,O=C(O)/C=C/c1cn([C@@H]2O[C@H](CO)[C@H](O)C2O)c(=O)[nH]c1=O (stereo partly drawn) [CBK201270],171.62
2,COCCn1c(CO)nnc1[C@H]1C[C@@H](NC(=O)c2cc(C)ccc2Cl)C1 [CBK306564],153.154
3,CC(C)Nc1cccnc1N1CCN(C(=O)c2cc3cc(NC(=O)N4CCOCC4)ccc3[nH]2)CC1 [CBK007872],121.408
4,NC(=S)N/N=C/c1c[nH]nc1-c1ccccc1 [CBK009705],122.109
5,CN(Cc1ccc(Br)cc1Cl)C(=O)c1cn[nH]c1C1CCNC1 (stereo not drawn) [CBK304785],87.2494
6,COc1ccc(CNc2cc(-c3cccc(Cl)c3)nc3ccnn23)cc1 [CBK037037],119.901
7,CCc1noc(C)c1C(=O)NC(C)c1cc2ccccc2o1 (stereo not drawn) [CBK247065],117.071
8,Cc1c(CN(C)CC2CCN(C)C2)cnn1Cc1ccccc1 (stereo not drawn) [CBK282616],138.279
9,O=c1[nH]c(CNc2ccccc2)nc2ccccc12 [CBK288038],111.083
10,CCCC/C=C/c1nccnc1NCc1ccco1 [CBK037116],98.0189
11,COc1cc(C2SCC(=O)Nc3c2c(-c2ccccc2)nn3-c2ccccc2)cc(OC)c1OC (stereo not drawn) [CBK265025],129.955
12,COc1ccc([C@@]23CC[C@@H](NC(=O)c4ccc(C(F)(F)F)cc4F)C[C@@H]2N(C)CC3)cc1OC [CBK073976T],106.098
13,O=C(c1ccc2c(c1)OCO2)N1CCN(C/C=C/c2ccccc2)CC1 [CBK262639],100
14,O=S(=O)(c1cc(Cl)ccc1Cl)N1CCCN(Cc2ccccc2)CC1 [CBK044491],118.931
15,COc1ccc(-c2nnc(SCC(=O)NN)n2-c2ccccc2)cc1OC [CBK262264],85.7603
16,COc1ccc2c(c1)C(=O)NC1(CC2)CCN(Cc2ccccc2)C1 (stereo not drawn) [CBK283343],136.782
17,O=C(Cn1ccc(=O)[nH]c1=O)NCc1cccnc1-n1cccn1 [CBK305705],127.441
18,COc1cc(NC(=O)Cn2nc([N+](=O)[O-])c(Cl)c2C)c(OC)cc1Cl [CBK033535],100.784
19,Cc1c(Br)c(C(F)(F)F)nn1CC(=O)N1CCCC1 [CBK071473],141.892
20,O=C(O)CCCC(=O)NNC(=O)c1cccc(Br)c1 [CBK263530],123.241
21,O=C(c1ccco1)N1CCN(c2cncc(-c3cc4ccccc4o3)n2)CC1 [CBK066044],86.3244
22,Cc1nc(CN2C(=O)CC3(C2=O)C(=O)N(CCCCOc2ccccc2)c2ccccc23)cs1 (stereo not drawn) [CBK076103],140.239
23,c1ccc(Oc2cccc(CN3CCN(c4ccccn4)CC3)c2)cc1 [CBK261523],115.02
24,CCOc1cc(/C=C/c2ccc3cccc(O)c3n2)cc(Br)c1O [CBK264451],100
25,Nc1nc(N)c([C@H]2C[C@@H](O)[C@@H](CO)O2)nc1Cl [CBK201326],149.416
26,CCN(CC)C(=O)c1ccc(NC(=O)CSc2n[nH]c(=O)n2CC2CCCO2)cc1 (stereo not drawn) [CBK295186],198.104

# Part of the list above, as tab-separated lines:
row	Compound	% of control remaining [%]
17	O=C(Cn1ccc(=O)[nH]c1=O)NCc1cccnc1-n1cccn1 [CBK305705]	127.441
18	COc1cc(NC(=O)Cn2nc([N+](=O)[O-])c(Cl)c2C)c(OC)cc1Cl [CBK033535]	100.784

# Structures shown so far with a tert-butyl group, in the order listed:
row,Compound,% of control remaining [%]
9,CC(=O)Nc1ccc(S(=O)(=O)Nc2nnc(C(C)(C)C)s2)cc1 [CBK045499],96.4657
12,CC(C)(C)NS(=O)(=O)c1ccc(NC(=O)c2cc(-c3ccccn3)nc3c(Cl)cccc23)cc1 [CBK267783],110.592
